Reference: PubChem BioAssay AID2685 (National Center for Advancing Translational Sciences (NCATS), 2010)
The list shows a part of the results. The main result of the screen is listed elsewhere. These columns were measured beside it and carry no call. The list favours compounds with an active or inconclusive main result. Words in brackets tell the shape of the fitted curve; partial curves, single points and poor fits give uncertain potencies.

Assay: qHTS Assay for Lipid Storage Modulators in Drosophila S3 Cells;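 for cell number change: cells counted by Cell Tracker Red CMTPX staining in the red channel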
Conditions: BODIPY lipid droplet fluorescence, 18-24 h; for cell number change: measured here: cell count max response, cells fed with added oleic acid
Method in brief: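 Drosophila S3 cells loaded with oleic acid (400 uM, as added) and compounds at several concentrations; lipid droplets imaged by 488-nm laser-scanning cytometry, 500–530 nm intensity and object ratio to cell channel. Percent activity normalized to 20 uM Triacsin C.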

[1] = measured here: cell number channel AC50, cells fed with added oleic acid
[2] = measured here: lipid fluorescence (Fed channel) AC50, cells fed with added oleic acid

Row | Structure (SMILES) | cell number change | AC50 [1] | AC50 [2]
1 | COC(=O)/C=C/S(=O)(=O)c1ccc(NC(C)=O)cc1 | -58.7% | 5.17 µM [falling, full curve] | 9.2 µM [falling, partial curve]
2 | CC(C)(O)CCC(C)(C)O | -39.8% | 3.66 µM [falling, single point] | 5.17 µM [falling, single point]
3 | CCN(CC)C(=O)COc1ccc(/C(C)=N/NC(=O)c2ccccc2O)cc1 | 21.8% | – | 6.51 µM [rising, single point]
4 | O=C(C1CCCN1S(=O)(=O)c1ccc(Cl)cc1)N1CCOCC1 (centres undefined) | 3.12% | – | 0.13 µM [falling, full curve, poor fit]
5 | Cc1ccc2occ(C(c3nnnn3C3CCCC3)N3CCN(C(=O)c4ccco4)CC3)c(=O)c2c1 (centres undefined) | -12.4% | – | 0.0146 µM [falling, full curve, poor fit]
6 | COc1cccc(C(=O)n2c(SC)nc3cc4c(cc32)OCCO4)c1 | 177% | 29.1 µM [rising, single point] | –
7 | CC1=C(C(=O)N2CCN(c3cc(C)ccc3C)CC2)C2(CCCCC2)OC1=O | 4.57% | – | 2.06 µM [rising, full curve]
8 | CCOC(=O)C(NC(=O)c1ccc(OC)cc1)(N1CCOCC1)C(F)(F)F (centres undefined) | -45% | 3.66 µM [falling, full curve] | 23.1 µM [falling, partial curve]
9 | CC(C)(C)c1ccc(/C=C2\SC(=O)N(CCNC(=O)c3cccc(S(=O)(=O)N4CCOCC4)c3)C2=O)cc1 | -32.6% | 20.6 µM [falling, single point] | 11.6 µM [falling, partial curve]
10 | CCCC[C@]12Cc3cc(OC)c(OC)cc3C(O1)c1c(cc(-c3ccccc3)oc1=O)O2 | 2.27% | – | 0.211 µM [rising, partial curve, poor fit]
11 | O=C1CC(N2CCC(O)(c3ccc(Br)cc3)CC2)C(=O)N1c1ccc(Cl)cc1 (centres undefined) | – | 0.58 µM [falling, single point] | –
12 | CCC/C(C)=C/c1ccc(CC)cn1 | 11% | – | 0.00461 µM [falling, full curve, poor fit]
13 | CC1CCN(C(=O)CSc2nc(N)c3c4c(sc3n2)CN(C)CC4)CC1 | -2.97% | – | –
14 | C=CCNc1sc(C(=O)c2ccccc2)c(N)c1C#N | 21.9% | 4.11 µM [rising, full curve, poor fit] | –
15 | CCOc1ccc(N2CC(C(=O)Nc3ccccc3C(=O)N3CCOCC3)CC2=O)cc1 (centres undefined) | 22.3% | – | –
16 | CCCN(CC(=O)Nc1ccccc1C)C(=O)CCNC(=O)c1ccccc1Cl | – | 0.517 µM [rising, full curve] | 0.82 µM [rising, full curve]
17 | COc1cc(OC)cc(C(=O)NCCS(=O)(=O)N2CCN(Cc3ccccc3)CC2)c1 | -18.1% | 2.91 µM [falling, partial curve] | 3.26 µM [falling, partial curve]
18 | COc1ccc(OC)c(C(=O)CCCC(=O)c2cc(OC)ccc2OC)c1 | -25.8% | – | 9.2 µM [falling, partial curve]

A few values from the list:
cell number change, `Cc1ccc2occ(C(c3nnnn3C3CCCC3)N3CCN(C(=O)c4ccco4)CC3)c(=O)c2c1` (centres undefined) reads -12.4%
cell number change, `CCOc1ccc(N2CC(C(=O)Nc3ccccc3C(=O)N3CCOCC3)CC2=O)cc1` (centres undefined) reads 22.3%

More results

Row | Structure (SMILES) | cell number change | AC50 [1] | AC50 [2]
19 | COc1ccc(-c2noc(CN(C)C(=O)c3ccc4c(c3)OCO4)n2)cc1 | -6.67% | – | 29.1 µM [rising, single point]
20 | COc1cnc(-c2ccccc2)nc1Oc1ccccc1C | – | – | 25.9 µM [falling, single point]
21 | Cc1ccc(Cn2ccc(NC(=O)CCSc3nc(-c4ccco4)cc(C(F)(F)F)n3)n2)cc1 | -21.5% | – | 3.66 µM [rising, partial curve]
22 | COCCCNC(=O)c1cn(C)c(=O)c2c1c1ccccc1n2C | 4.26% | – | 0.184 µM [rising, full curve, poor fit]
23 | COc1c(C)cc(C(=O)C2CCCN(C(=O)c3cc(C)on3)C2)cc1C (centres undefined) | -11.8% | – | 13 µM [rising, partial curve]
24 | Cc1nc(N)sc1C(=O)N/N=C/c1ccccc1[N+](=O)[O-] | 78.1% | 29.1 µM [rising, single point] | –
25 | CC(C)c1cc(C(=O)NNC(=S)NC2CCCCC2)cs1 | 10.1% | 0.461 µM [rising, full curve, poor fit] | 3.66 µM [rising, single point]
26 | COc1cc(C(=O)N/N=C/c2sc(=O)n(-c3ccccc3)c2Cl)cc(OC)c1OC | -10.9% | – | 1.84 µM [rising, full curve, poor fit]
27 | CC(C)CC(NS(=O)(=O)OCC(Cl)(Cl)Cl)c1ccccc1 (centres undefined) | -33.8% | 32.6 µM [falling, single point] | –
28 | O=C(NCc1ccncc1)C(=O)NCc1ccncc1 | -9.15% | – | 6.51 µM [falling, single point]
29 | Cc1cccc(NS(=O)(=O)c2cc(C(=O)N3CCc4ccccc4C3)ccc2Cl)c1C | -16% | – | –
30 | O=C(CCc1nc2ccccc2c(=O)[nH]1)NNC(=O)c1ccc(Cl)cc1 | 7.02% | – | 6.51 µM [rising, single point]
31 | O=S(=O)(c1ccccc1)c1cnc(-c2ccccc2)nc1N1CCCC1 | 16.1% | – | 0.651 µM [rising, full curve, poor fit]
32 | CC1CCCCN1C(=O)COC(=O)c1ccc2ccccc2n1 (centres undefined) | 11.5% | – | 0.00411 µM [rising, full curve, poor fit]
33 | Cc1ccc(S(=O)(=O)C(C#N)c2nc3ccccc3nc2N2CCCC2)cc1C (centres undefined) | – | 0.651 µM [rising, single point] | 13 µM [rising, partial curve]
34 | CCCCOC(=O)c1ccc(NC(=S)NC(=O)c2ccco2)cc1 | -8.35% | – | 29.1 µM [falling, single point]
35 | Cn1c(N)c(C(=O)COC(=O)c2ccccn2)c(=O)n(C)c1=O | 4.53% | 0.517 µM [rising, single point] | 0.58 µM [rising, single point]
36 | COc1ccccc1N1CCN(C2CCCN(C(=O)c3cccc(-c4ccco4)c3)C2)CC1 (centres undefined) | -8.71% | – | 3.26 µM [rising, single point]
